The supplement of paper PMC10060354, “Discovery of a small molecule ligand of FRS2 that inhibits invasion and tumor growth” (Cellular Oncology, 2022)

Protein sequences, listed by entry. Tags and fused reporters are not part of them. Lines headed by an entry give the natural chain unless they say otherwise; changes in a name come on top.
UniProt Q9BXV9: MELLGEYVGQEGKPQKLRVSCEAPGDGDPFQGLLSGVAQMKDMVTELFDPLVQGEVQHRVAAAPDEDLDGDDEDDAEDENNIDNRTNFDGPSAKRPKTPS
UniProt O60239: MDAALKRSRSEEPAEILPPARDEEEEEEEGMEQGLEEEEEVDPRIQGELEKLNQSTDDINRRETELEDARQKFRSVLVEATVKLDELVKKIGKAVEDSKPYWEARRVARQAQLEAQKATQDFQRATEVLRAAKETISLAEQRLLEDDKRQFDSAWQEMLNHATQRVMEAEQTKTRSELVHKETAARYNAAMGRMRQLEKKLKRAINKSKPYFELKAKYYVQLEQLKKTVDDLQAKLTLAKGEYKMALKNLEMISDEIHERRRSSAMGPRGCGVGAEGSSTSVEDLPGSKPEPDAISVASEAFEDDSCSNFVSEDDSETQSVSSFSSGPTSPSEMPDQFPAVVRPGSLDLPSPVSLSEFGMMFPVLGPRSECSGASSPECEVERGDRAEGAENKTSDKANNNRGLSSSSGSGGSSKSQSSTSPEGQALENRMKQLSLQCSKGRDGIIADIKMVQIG
UniProt Q8IZH2: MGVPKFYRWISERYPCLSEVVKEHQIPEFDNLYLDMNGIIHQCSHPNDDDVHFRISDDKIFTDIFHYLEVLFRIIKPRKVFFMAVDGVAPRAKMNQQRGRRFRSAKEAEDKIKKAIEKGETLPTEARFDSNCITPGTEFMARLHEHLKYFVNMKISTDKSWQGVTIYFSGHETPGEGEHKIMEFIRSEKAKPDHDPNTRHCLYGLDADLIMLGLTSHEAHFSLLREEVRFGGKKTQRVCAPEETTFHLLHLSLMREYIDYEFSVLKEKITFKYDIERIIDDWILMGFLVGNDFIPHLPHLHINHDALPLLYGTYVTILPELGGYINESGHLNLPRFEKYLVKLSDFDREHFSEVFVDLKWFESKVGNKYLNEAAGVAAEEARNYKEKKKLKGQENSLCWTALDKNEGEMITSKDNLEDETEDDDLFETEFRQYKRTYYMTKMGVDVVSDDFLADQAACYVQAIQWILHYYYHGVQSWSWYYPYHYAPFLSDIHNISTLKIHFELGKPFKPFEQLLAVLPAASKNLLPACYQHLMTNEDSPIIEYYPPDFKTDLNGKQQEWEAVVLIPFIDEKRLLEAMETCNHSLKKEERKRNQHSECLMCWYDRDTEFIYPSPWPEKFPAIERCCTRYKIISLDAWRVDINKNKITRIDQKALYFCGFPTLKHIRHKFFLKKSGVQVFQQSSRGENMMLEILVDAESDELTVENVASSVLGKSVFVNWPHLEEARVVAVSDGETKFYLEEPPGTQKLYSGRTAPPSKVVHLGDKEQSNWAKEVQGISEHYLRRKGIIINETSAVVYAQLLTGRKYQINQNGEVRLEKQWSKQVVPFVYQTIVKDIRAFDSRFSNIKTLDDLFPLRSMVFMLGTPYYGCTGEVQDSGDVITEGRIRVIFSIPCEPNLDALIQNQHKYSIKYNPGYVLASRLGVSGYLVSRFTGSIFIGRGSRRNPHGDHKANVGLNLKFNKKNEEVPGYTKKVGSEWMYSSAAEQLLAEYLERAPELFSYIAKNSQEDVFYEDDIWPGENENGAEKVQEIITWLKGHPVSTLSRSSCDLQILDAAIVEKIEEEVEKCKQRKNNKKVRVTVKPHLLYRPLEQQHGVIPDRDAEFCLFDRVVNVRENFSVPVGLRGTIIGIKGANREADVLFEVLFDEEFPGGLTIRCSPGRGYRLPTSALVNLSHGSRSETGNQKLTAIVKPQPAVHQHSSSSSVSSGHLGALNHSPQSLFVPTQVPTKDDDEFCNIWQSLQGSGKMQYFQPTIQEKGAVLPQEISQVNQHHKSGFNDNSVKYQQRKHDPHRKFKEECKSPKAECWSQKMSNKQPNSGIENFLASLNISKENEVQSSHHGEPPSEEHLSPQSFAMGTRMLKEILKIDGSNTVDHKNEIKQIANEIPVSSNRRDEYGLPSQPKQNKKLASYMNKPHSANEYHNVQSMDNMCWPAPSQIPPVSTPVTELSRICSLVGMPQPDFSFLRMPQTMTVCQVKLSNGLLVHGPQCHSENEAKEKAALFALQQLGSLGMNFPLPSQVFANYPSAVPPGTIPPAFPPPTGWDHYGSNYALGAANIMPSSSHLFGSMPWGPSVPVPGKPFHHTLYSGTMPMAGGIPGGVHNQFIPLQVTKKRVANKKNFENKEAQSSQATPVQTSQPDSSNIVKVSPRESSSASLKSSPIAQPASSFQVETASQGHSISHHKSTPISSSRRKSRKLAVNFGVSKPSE
UniProt Q69YL0: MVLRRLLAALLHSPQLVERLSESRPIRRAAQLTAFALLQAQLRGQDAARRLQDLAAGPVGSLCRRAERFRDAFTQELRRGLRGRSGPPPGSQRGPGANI
UniProt P11142, whole entry, looked up: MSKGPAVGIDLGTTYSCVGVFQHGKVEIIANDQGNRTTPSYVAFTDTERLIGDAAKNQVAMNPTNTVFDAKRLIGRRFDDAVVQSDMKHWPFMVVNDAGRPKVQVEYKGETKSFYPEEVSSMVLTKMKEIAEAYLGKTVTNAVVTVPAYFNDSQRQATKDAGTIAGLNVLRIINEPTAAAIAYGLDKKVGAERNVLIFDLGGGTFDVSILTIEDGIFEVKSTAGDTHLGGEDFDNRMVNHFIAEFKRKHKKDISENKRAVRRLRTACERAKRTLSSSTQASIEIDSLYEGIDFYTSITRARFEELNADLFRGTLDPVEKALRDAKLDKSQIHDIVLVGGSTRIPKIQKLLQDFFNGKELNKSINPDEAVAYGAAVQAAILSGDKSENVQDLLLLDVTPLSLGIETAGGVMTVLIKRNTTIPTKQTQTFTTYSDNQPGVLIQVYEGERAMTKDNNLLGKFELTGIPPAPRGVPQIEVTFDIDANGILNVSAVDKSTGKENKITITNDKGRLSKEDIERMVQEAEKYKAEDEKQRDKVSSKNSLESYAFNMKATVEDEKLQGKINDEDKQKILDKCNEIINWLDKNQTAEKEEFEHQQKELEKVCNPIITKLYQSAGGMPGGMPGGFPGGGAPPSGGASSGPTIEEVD
UniProt Q9NUD5: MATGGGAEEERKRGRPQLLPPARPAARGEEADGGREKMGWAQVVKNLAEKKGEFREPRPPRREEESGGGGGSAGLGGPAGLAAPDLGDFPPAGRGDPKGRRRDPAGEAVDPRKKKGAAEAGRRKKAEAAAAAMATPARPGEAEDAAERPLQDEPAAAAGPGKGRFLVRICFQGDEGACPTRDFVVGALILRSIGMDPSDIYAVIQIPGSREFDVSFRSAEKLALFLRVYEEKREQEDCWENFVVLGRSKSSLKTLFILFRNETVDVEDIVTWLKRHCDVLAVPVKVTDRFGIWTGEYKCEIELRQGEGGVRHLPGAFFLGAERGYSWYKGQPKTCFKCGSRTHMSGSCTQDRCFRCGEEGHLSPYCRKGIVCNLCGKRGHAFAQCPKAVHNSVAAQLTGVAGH
UniProt Q5JPH6: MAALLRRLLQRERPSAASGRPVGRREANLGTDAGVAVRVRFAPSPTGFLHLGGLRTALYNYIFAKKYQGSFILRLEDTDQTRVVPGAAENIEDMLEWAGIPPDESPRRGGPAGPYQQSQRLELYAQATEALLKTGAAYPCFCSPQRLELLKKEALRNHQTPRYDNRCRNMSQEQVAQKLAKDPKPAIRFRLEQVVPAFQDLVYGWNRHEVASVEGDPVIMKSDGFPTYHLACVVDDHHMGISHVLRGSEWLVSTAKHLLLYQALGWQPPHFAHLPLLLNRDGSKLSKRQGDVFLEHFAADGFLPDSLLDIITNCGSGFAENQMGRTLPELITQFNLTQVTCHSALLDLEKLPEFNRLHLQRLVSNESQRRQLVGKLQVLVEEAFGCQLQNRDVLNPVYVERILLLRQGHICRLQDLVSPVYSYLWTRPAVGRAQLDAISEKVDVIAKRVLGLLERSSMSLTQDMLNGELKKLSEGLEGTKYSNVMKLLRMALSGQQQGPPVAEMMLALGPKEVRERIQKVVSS
UniProt Q6P2I3: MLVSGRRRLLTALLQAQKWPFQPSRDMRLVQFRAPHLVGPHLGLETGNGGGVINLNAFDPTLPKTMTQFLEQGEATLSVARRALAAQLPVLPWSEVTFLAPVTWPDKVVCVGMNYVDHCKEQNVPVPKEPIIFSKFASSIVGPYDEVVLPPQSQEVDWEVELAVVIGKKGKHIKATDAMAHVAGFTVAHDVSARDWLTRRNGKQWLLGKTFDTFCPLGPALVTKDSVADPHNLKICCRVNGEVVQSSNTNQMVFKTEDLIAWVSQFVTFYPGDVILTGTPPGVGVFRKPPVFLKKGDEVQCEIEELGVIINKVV
UniProt Q7L576: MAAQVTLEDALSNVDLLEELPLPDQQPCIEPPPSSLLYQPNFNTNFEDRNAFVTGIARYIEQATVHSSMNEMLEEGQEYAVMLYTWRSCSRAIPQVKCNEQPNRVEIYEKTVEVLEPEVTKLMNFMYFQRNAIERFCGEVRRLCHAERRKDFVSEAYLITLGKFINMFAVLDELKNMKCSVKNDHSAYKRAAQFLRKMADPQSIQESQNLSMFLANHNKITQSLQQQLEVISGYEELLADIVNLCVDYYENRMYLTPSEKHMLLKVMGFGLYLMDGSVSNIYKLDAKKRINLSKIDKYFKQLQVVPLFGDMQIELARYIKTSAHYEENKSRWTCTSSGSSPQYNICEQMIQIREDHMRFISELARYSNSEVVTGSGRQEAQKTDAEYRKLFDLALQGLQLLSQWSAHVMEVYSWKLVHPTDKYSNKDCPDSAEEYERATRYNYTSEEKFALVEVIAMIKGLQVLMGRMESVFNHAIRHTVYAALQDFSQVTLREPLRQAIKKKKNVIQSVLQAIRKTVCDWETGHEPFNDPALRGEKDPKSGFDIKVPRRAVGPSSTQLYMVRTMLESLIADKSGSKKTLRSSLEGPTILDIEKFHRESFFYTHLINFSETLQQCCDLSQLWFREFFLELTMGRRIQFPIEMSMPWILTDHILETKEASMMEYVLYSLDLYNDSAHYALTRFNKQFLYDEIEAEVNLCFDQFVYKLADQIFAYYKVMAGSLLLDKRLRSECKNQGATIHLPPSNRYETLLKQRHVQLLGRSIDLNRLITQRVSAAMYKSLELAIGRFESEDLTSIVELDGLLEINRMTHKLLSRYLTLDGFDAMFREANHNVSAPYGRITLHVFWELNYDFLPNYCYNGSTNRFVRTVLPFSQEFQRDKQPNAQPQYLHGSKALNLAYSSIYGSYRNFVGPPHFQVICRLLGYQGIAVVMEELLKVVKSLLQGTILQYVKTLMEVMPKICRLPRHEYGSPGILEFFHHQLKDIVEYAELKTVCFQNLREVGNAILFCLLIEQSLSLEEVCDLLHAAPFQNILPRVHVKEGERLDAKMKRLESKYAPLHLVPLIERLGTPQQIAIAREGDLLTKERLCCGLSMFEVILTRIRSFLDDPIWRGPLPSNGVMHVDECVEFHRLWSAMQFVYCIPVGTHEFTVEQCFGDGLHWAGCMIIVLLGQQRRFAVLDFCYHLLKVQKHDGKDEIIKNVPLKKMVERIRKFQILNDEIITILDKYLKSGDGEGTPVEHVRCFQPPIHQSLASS
UniProt P11171, whole entry: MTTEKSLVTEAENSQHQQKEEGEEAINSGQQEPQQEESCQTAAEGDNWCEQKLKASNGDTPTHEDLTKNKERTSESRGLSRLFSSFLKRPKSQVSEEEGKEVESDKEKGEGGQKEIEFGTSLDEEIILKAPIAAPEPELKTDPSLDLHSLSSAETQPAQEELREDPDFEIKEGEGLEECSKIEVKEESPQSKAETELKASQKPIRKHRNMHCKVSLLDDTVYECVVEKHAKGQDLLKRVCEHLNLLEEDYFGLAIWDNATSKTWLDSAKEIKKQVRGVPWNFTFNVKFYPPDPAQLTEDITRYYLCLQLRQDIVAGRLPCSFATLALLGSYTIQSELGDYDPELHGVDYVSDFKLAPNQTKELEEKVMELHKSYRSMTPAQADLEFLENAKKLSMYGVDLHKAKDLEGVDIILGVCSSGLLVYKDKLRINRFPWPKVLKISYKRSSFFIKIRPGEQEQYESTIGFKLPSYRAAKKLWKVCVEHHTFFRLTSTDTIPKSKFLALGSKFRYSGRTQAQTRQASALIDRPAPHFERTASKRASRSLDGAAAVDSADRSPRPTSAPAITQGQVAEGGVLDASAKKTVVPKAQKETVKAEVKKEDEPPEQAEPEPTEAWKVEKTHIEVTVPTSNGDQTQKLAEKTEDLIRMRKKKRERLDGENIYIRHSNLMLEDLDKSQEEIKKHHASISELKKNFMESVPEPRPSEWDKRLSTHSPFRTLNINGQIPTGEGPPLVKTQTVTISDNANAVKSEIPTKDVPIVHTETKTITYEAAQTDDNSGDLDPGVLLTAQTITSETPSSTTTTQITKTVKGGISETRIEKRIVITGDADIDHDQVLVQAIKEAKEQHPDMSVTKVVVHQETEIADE
UniProt Q96EC8: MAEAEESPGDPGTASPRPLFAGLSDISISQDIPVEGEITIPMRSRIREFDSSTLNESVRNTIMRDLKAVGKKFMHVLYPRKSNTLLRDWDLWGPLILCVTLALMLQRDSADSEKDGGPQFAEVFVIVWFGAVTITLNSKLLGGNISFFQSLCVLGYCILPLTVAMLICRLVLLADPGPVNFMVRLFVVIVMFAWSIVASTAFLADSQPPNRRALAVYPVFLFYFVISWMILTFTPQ

Compound: [O-][N+](C(C1=C(C(O)=C2)NC(C(C=C3)=CC=C3Cl)C4C1C=CC4)=C2Cl)=O
Experiment: melting temperature shift (compound 7 minus DMSO); higher = compound stabilises the protein
Settings: 10 µM
Description: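 Thermal proteome profiling (TMT mass spectrometry) in intact DAOY medulloblastoma cells or DAOY lysates treated with 10 µM compound 7 or DMSO, heated at 10 temperatures from 40.5 to 73.8 °C for 3 min. Melting curves were fitted with the Bioconductor TPP package, and the melting point difference between compound and vehicle is reported per protein (single curve per condition).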

[1] = system: DAOY cell lysate, treatment time: 20 min, 4 °C
[2] = system: intact DAOY cells, treatment time: 90 min, 37 °C

## XRCC5 (UniProt P13010)
[1]
  melting temperature shift: -0.39 °C
[2]
  melting temperature shift: -0.65 °C

## UniProt Q9BXV9
[2]
  melting temperature shift: 2.01 °C

## UniProt L0R8F8
[1]
  melting temperature shift: 0.495 °C
[2]
  melting temperature shift: 0.195 °C

## LGALS3BP (UniProt Q08380)
[1]
  melting temperature shift: 1.85 °C
[2]
  melting temperature shift: 0.662 °C

## BID (UniProt P55957)
[1]
  melting temperature shift: 6.2 °C
[2]
  melting temperature shift: -0.407 °C

## OXR1 (UniProt Q8N573)
[1]
  melting temperature shift: -0.622 °C
[2]
  melting temperature shift: 0.0739 °C

## HDAC7 (UniProt Q8WUI4)
[1]
  melting temperature shift: -0.597 °C
[2]
  melting temperature shift: -0.44 °C

## FAF1 (UniProt Q9UNN5)
[1]
  melting temperature shift: -0.726 °C
[2]
  melting temperature shift: 0.684 °C

## UniProt O94817
[1]
  melting temperature shift: 0.417 °C
[2]
  melting temperature shift: 0.309 °C

## WDR12 (UniProt Q9GZL7)
[1]
  melting temperature shift: 0.908 °C
[2]
  melting temperature shift: 0.63 °C

## DNPEP (UniProt Q9ULA0)
[1]
  melting temperature shift: -0.868 °C
[2]
  melting temperature shift: -2.36 °C

## UniProt Q16864
[1]
  melting temperature shift: -0.481 °C
[2]
  melting temperature shift: -0.358 °C

## UniProt E7EU14
[2]
  melting temperature shift: 0.49 °C

## UniProt Q9UNT1
[1]
  melting temperature shift: -2.59 °C

## SH3BP5 (UniProt O60239)
[1]
  melting temperature shift: -1.51 °C

## API5 (UniProt Q9BZZ5)
[1]
  melting temperature shift: 0.0758 °C
[2]
  melting temperature shift: -0.00171 °C

## XRN1 (UniProt Q8IZH2)
[1]
  melting temperature shift: -2.44 °C

## GEMIN8 (UniProt Q9NWZ8)
[1]
  melting temperature shift: -1.18 °C
[2]
  melting temperature shift: 4.89 °C

## WDR33 (UniProt Q9C0J8)
[1]
  melting temperature shift: -0.966 °C

## PAFAH2 (UniProt Q99487)
[1]
  melting temperature shift: -0.195 °C
[2]
  melting temperature shift: -0.0533 °C

## ACTG1 (UniProt P63261)
[1]
  melting temperature shift: 1.67 °C
[2]
  melting temperature shift: 1.09 °C

## UniProt Q8IX01
[1]
  melting temperature shift: 0.147 °C
[2]
  melting temperature shift: 0.127 °C

## UniProt Q9H115
[2]
  melting temperature shift: 0.208 °C

## UniProt Q9BQP9
[2]
  melting temperature shift: -1.83 °C

## UniProt O14910
[2]
  melting temperature shift: 1.13 °C

## TPR (UniProt P12270)
[1]
  melting temperature shift: 0.00221 °C
[2]
  melting temperature shift: 2.01 °C

## UniProt Q69YL0
[1]
  melting temperature shift: 1.14 °C

## PTRH2 (UniProt Q9Y3E5)
[1]
  melting temperature shift: 1.66 °C
[2]
  melting temperature shift: -0.308 °C

## RBM25 (UniProt P49756)
[1]
  melting temperature shift: -0.209 °C
[2]
  melting temperature shift: -1.09 °C

## UniProt O60831
[1]
  melting temperature shift: 1.4 °C

## RAB27A (UniProt P51159)
[1]
  melting temperature shift: 1.43 °C
[2]
  melting temperature shift: -1.66 °C

## ATP6V1A (UniProt P38606)
[1]
  melting temperature shift: -0.324 °C
[2]
  melting temperature shift: 1.49 °C

## ACADSB (UniProt P45954)
[1]
  melting temperature shift: 0.147 °C
[2]
  melting temperature shift: -1.25 °C

## GALK1 (UniProt P51570)
[1]
  melting temperature shift: -0.423 °C
[2]
  melting temperature shift: -1.7 °C

## MRPL3 (UniProt P09001)
[1]
  melting temperature shift: -0.74 °C
[2]
  melting temperature shift: 0.235 °C

## USP15 (UniProt Q9Y4E8)
[1]
  melting temperature shift: -0.9 °C
[2]
  melting temperature shift: 0.649 °C

## GOLPH3L (UniProt Q9H4A5)
[2]
  melting temperature shift: 1.3 °C

## TP53RK (UniProt Q96S44)
[1]
  melting temperature shift: -0.268 °C
[2]
  melting temperature shift: -0.697 °C

## WBP2 (UniProt Q969T9)
[1]
  melting temperature shift: -1.32 °C
[2]
  melting temperature shift: -1.04 °C

## PAPOLA (UniProt P51003)
[1]
  melting temperature shift: -0.365 °C
[2]
  melting temperature shift: -1.12 °C

## UniProt O60361
[2]
  melting temperature shift: -0.262 °C

## UniProt Q9NUS5
[2]
  melting temperature shift: -0.942 °C

## GLA (UniProt P06280)
[1]
  melting temperature shift: 2.7 °C
[2]
  melting temperature shift: 1.23 °C

## ATE1 (UniProt O95260)
[1]
  melting temperature shift: -0.196 °C
[2]
  melting temperature shift: 1.23 °C

## TTC13 (UniProt Q8NBP0)
[2]
  melting temperature shift: -2.66 °C

## RTTN (UniProt Q86VV8)
[1]
  melting temperature shift: -0.667 °C
[2]
  melting temperature shift: -0.291 °C

## RAP1B (UniProt P61224)
[1]
  melting temperature shift: 2.1 °C
[2]
  melting temperature shift: -0.956 °C

## UniProt Q53HL2
[1]
  melting temperature shift: 0.791 °C
[2]
  melting temperature shift: 1.23 °C

## HSPA8 (UniProt P11142)
[1]
  melting temperature shift: -0.172 °C
[2]
  melting temperature shift: -0.0517 °C

## PSMB2 (UniProt P49721)
[2]
  melting temperature shift: -0.476 °C

## MID1 (UniProt O15344)
[1]
  melting temperature shift: -2.18 °C
[2]
  melting temperature shift: 0.399 °C

## UniProt O15525
[2]
  melting temperature shift: -0.0245 °C

## PDCD6 (UniProt O75340)
[1]
  melting temperature shift: -0.0622 °C
[2]
  melting temperature shift: 0.253 °C

## TRMT61B (UniProt Q9BVS5)
[1]
  melting temperature shift: 1.19 °C
[2]
  melting temperature shift: 4.86 °C

## RAD23B (UniProt P54727)
[1]
  melting temperature shift: -2.88 °C

## UniProt Q5T011
[1]
  melting temperature shift: -1.32 °C

## HAX1 (UniProt O00165)
[2]
  melting temperature shift: 0.424 °C

## UniProt Q9NUD5
[1]
  melting temperature shift: 1.04 °C

## EARS2 (UniProt Q5JPH6)
[1]
  melting temperature shift: -1.85 °C
[2]
  melting temperature shift: -1.69 °C

## ATP6V0D1 (UniProt P61421)
[1]
  melting temperature shift: 1.31 °C
[2]
  melting temperature shift: -0.299 °C

## SBNO1 (UniProt A3KN83)
[1]
  melting temperature shift: -0.0491 °C
[2]
  melting temperature shift: -1.32 °C

## MECR (UniProt Q9BV79)
[2]
  melting temperature shift: 1.98 °C

## CRNKL1 (UniProt Q9BZJ0)
[1]
  melting temperature shift: -0.587 °C
[2]
  melting temperature shift: -0.237 °C

## USP22 (UniProt Q9UPT9)
[1]
  melting temperature shift: -0.0365 °C
[2]
  melting temperature shift: 0.157 °C

## AGAP3 (UniProt Q96P47)
[1]
  melting temperature shift: -0.00436 °C
[2]
  melting temperature shift: -2.54 °C

## ARF6 (UniProt P62330)
[1]
  melting temperature shift: -1.08 °C
[2]
  melting temperature shift: -0.964 °C

## BRD4 (UniProt O60885)
[1]
  melting temperature shift: -0.5 °C
[2]
  melting temperature shift: 0.369 °C

## PSMD14 (UniProt O00487)
[1]
  melting temperature shift: -0.609 °C
[2]
  melting temperature shift: -1.32 °C

## UniProt Q6P2I3
[2]
  melting temperature shift: -0.0772 °C

## CYFIP1 (UniProt Q7L576)
[1]
  melting temperature shift: -0.219 °C
[2]
  melting temperature shift: 0.0619 °C

## UniProt Q96JQ2
[1]
  melting temperature shift: 1.35 °C

## EPB41 (UniProt P11171)
[1]
  melting temperature shift: 0.997 °C
[2]
  melting temperature shift: 0.342 °C

## OSBPL1A (UniProt Q9BXW6)
[1]
  melting temperature shift: 0.146 °C
[2]
  melting temperature shift: -1.96 °C

## DHODH (UniProt Q02127)
[1]
  melting temperature shift: 0.922 °C

## SLC19A1 (UniProt P41440)
[1]
  melting temperature shift: 5.64 °C
[2]
  melting temperature shift: -0.655 °C

## NAA25 (UniProt Q14CX7)
[1]
  melting temperature shift: -0.262 °C
[2]
  melting temperature shift: -0.919 °C

## UniProt Q14194
[1]
  melting temperature shift: 1.17 °C
[2]
  melting temperature shift: -0.137 °C

## FANCI (UniProt Q9NVI1)
[1]
  melting temperature shift: -0.812 °C
[2]
  melting temperature shift: 0.524 °C

## SUPT5H (UniProt O00267)
[1]
  melting temperature shift: -0.027 °C
[2]
  melting temperature shift: 0.0854 °C

## UniProt Q9P0V9
[1]
  melting temperature shift: -0.643 °C
[2]
  melting temperature shift: 0.289 °C

## UniProt Q96EC8
[1]
  melting temperature shift: 3.64 °C

## UniProt Q9HC77
[1]
  melting temperature shift: -0.708 °C
[2]
  melting temperature shift: 0.0891 °C

## SERINC1 (UniProt Q9NRX5)
[1]
  melting temperature shift: 1.66 °C
[2]
  melting temperature shift: 1.5 °C

## THUMPD3 (UniProt Q9BV44)
[1]
  melting temperature shift: -1.23 °C
[2]
  melting temperature shift: 0.384 °C

## DDX17 (UniProt Q92841)
[1]
  melting temperature shift: 0.329 °C
[2]
  melting temperature shift: -0.0421 °C

Single values are uncertain, as repeats are few or missing.
